Earlier results in article PMC12990809.
The direction of at least one scale is not stated here. For some assays here: Tags and fusion partners may be left off the protein sequences shown.

How the values were obtained:
Experiment in all cases: pull-down
TUT1 (Homo sapiens) = target: T1, TUT1 (Homo sapiens) (UniProt F5H0R1); details: 20 nM protein, 1.5 uM RNA pool; 20 mM HEPES pH 7.8, 70 mM KCl, 10 mM NaCl, 10% glycerol, 2 mM DTT, 0.1 ug/uL BSA; 30 min, 4 C; purified recombinant protein; only the motif is given; cited from earlier work
T1 sequence: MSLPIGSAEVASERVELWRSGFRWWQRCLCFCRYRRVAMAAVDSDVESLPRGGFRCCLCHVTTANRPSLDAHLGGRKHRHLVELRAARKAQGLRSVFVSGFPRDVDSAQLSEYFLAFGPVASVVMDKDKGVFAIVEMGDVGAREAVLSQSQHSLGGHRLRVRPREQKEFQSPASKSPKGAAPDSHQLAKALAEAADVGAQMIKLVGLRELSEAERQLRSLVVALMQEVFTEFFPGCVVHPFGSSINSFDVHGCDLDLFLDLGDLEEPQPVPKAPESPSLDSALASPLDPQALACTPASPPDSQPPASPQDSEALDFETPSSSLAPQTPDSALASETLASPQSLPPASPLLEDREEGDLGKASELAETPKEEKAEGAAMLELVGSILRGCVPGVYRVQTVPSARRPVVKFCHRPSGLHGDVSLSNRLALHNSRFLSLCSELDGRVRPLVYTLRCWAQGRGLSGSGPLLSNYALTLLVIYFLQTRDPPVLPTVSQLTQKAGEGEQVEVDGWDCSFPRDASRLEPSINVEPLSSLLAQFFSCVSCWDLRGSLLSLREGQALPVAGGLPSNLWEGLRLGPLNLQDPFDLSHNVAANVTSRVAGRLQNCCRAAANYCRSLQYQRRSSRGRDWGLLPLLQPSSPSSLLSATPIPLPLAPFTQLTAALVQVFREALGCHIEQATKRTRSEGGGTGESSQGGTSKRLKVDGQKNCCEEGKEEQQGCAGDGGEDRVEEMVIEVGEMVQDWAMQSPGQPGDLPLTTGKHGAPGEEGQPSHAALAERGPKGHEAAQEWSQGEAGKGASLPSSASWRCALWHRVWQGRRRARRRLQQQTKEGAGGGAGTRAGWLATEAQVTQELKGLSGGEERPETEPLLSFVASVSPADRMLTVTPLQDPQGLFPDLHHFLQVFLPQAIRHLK

SRSF2 (Homo sapiens) = target: T2, SRSF2 (Homo sapiens) (UniProt Q01130); details: 20 nM protein, 1.5 uM RNA pool; 20 mM HEPES pH 7.8, 70 mM KCl, 10 mM NaCl, 10% glycerol, 2 mM DTT, 0.1 ug/uL BSA; 30 min, 4 C; purified recombinant protein; residues 1-120; only the motif is given; cited from earlier work
T2 sequence: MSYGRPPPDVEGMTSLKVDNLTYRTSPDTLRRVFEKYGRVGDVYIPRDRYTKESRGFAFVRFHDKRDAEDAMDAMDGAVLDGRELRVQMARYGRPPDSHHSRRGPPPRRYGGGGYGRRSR

[1] = target: T3, CG33714 (Drosophila melanogaster) (UniProt Q0KHQ1); details: 20 nM protein, 1.5 uM RNA pool; 20 mM HEPES pH 7.8, 70 mM KCl, 10 mM NaCl, 10% glycerol, 2 mM DTT, 0.1 ug/uL BSA; 30 min, 4 C; purified recombinant protein; protein details: N-terminal GST (kept); only the motif is given; cited from earlier work
T3 sequence: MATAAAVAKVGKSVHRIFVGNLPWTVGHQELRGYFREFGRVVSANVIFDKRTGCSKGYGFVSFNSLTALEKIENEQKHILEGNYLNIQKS

[2] = target: T4, Rnp4F (Drosophila melanogaster) (UniProt Q9W4D2); details: 20 nM protein, 1.5 uM RNA pool; 20 mM HEPES pH 7.8, 70 mM KCl, 10 mM NaCl, 10% glycerol, 2 mM DTT, 0.1 ug/uL BSA; 30 min, 4 C; purified recombinant protein; residues 676-845; protein details: N-terminal GST (kept); only the motif is given; cited from earlier work
T4 sequence: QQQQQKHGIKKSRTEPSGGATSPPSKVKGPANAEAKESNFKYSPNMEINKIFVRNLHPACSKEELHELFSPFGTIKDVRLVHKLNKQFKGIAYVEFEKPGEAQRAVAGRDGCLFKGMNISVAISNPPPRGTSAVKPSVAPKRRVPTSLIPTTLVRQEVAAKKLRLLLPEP

RBM8A (Homo sapiens) = RBM8A (Homo sapiens) (UniProt Q9Y5S9); details: 20 nM protein, 1.5 uM RNA pool; 20 mM HEPES pH 7.8, 70 mM KCl, 10 mM NaCl, 10% glycerol, 2 mM DTT, 0.1 ug/uL BSA; 30 min, 4 C; purified recombinant protein; residues 22-174; protein details: N-terminal GST (kept); only the motif is given; cited from earlier work

## CGAUACU [RNAcompete motif RNCMPT00075]
TUT1 (Homo sapiens)
  binding signal (z-score (mean of top ten 7-mers)): 4.2

## AGGAGAG [RNAcompete motif RNCMPT00072]
SRSF2 (Homo sapiens)
  binding signal (z-score (mean of top ten 7-mers)): 5.69

## AGGGCGU [RNAcompete motif RNCMPT00009]
[1]
  binding signal (z-score (mean of top ten 7-mers)): 5.74

## CAGAC [RNAcompete motif RNCMPT00060]
[2]
  binding signal (z-score (mean of top ten 7-mers)): 5.2

## UGCGCGC [RNAcompete motif RNCMPT00056]
RBM8A (Homo sapiens)
  binding signal (z-score (mean of top ten 7-mers)): 4.37
